Reference: paper PMC7819943, “Rice protein-binding microarrays: a tool to detect cis-acting elements near promoter regions in rice”
This is one part of the list.

Amino acid sequences for entries named in this document (tags omitted).
UniProt Q0JBA9, entry or part of it: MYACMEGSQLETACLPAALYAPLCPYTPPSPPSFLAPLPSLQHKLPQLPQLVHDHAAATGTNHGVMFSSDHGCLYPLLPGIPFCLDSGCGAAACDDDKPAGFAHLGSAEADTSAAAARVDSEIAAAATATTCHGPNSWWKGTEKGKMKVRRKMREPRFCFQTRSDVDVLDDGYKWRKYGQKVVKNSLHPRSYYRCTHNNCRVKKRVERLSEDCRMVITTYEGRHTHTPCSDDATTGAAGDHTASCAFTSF

Molecular target: OsWRKY34 (Oryza sativa, UniProt Q0JBA9 1-250)
Assay: protein-binding microarray (RPBM); PBS, 2% BSA, 51.3 ng/ul salmon testes DNA, 50 uM zinc acetate, 200 nM TF, 25 C, 1 h; high values mean tight binding
Details: protein: recombinant; tags: N-terminal polyhistidine and DsRed monomer fusion (pET32a); label: CyDye5-dUTP incorporated in the synthesized complementary strand; 3' TTTTT single-stranded linker to array surface; dsDNA, one strand shown
How it was run: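 Transcription factors, each fused N-terminally to a polyhistidine tag and DsRed, were expressed in E. coli BL21-CodonPlus and purified on Ni–NTA. A custom Agilent array was made double-stranded by primer extension with Cy5-dUTP and blocked with 2% BSA. It was incubated with 200 nM protein in PBS, 2% BSA, salmon testes DNA and 50 µM zinc acetate at 25 °C for 1 h, then washed. The binding signal is per-feature fluorescence intensity (arbitrary units) read on an Axon 4000B scanner.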

Row | Sequence | binding signal
1 | GTTCTGTTTAGGGGCCGGGGTGGCATAACAGAATAAGTTGCGGAGTCACCTAGTGCAG | 9040 fluorescence intensity (a.u.)
2 | CCAAGCCGCGGACTTCTCTTTTTTCTTTTCTTTTCTCTATCGGAGTCACCTAGTGCAG | 10300 fluorescence intensity (a.u.)
3 | TATATTGCGCGTCTTAAAATTCAGCTATTGTTTCGTTGAACGGAGTCACCTAGTGCAG | 8120 fluorescence intensity (a.u.)
4 | TCTTTTTTATGCCCTGGTCTTAGCTTACGTATGTTTTTACCGGAGTCACCTAGTGCAG | 10500 fluorescence intensity (a.u.)
5 | TATTTTCCTGATGTTTTGCAGCATACTCTTTTGTTTTCAACGGAGTCACCTAGTGCAG | 9390 fluorescence intensity (a.u.)
6 | ACCTTTGAATTCTTATAAATACCACGAATTCATCCTGTCCCGGAGTCACCTAGTGCAG | 8110 fluorescence intensity (a.u.)
7 | TTTTTTTTTGCGAGGAACTACACTATTTCTTTTAGAACCACGGAGTCACCTAGTGCAG | 8380 fluorescence intensity (a.u.)
8 | ATATCCCCACCACGCAACACGGGCAATTCGGCGCGCGTGCCGGAGTCACCTAGTGCAG | 8370 fluorescence intensity (a.u.)
9 | TTATCTCGCGATTTACATACAGCCTATGCAATTAGCTTTTCGGAGTCACCTAGTGCAG | 8050 fluorescence intensity (a.u.)
10 | CTTCCTTTTCTCTTCTTCTTCTTCTTCTTTTGCGTGGGGACGGAGTCACCTAGTGCAG | 9650 fluorescence intensity (a.u.)
11 | TCTTTAGTTCAGTTAATCCTCCTTTTAAAAGGATAGCTCTCGGAGTCACCTAGTGCAG | 8200 fluorescence intensity (a.u.)
12 | GTGATGTAAGTTGGCAATAATTTCCCTTGCCATTTTGTTTCGGAGTCACCTAGTGCAG | 8630 fluorescence intensity (a.u.)
13 | TGTTAAGTATGTTGTTGTTGTGTCCCTTGCTTCATTGGTGCGGAGTCACCTAGTGCAG | 10500 fluorescence intensity (a.u.)
14 | CCTATGTATAGTGCTTAGATGCCGTTGTCCGAAGGTTCAGCGGAGTCACCTAGTGCAG | 9050 fluorescence intensity (a.u.)
15 | TTTTATTTTATACCGGTTCATATTATTTCACAGTATTACTCGGAGTCACCTAGTGCAG | 8360 fluorescence intensity (a.u.)
16 | GCGCCCACCGCTTCCCGCTCCTTCACGCTCTCCACTCCGCCGGAGTCACCTAGTGCAG | 8770 fluorescence intensity (a.u.)
17 | TCCATTGCTTTCCTGTATGGACCGTGTTATAACATGCAATCGGAGTCACCTAGTGCAG | 10700 fluorescence intensity (a.u.)
18 | TGCATGGGTGGTGGTTTTTTTTCTTCGTTTTTCTGAGTACCGGAGTCACCTAGTGCAG | 12600 fluorescence intensity (a.u.)
19 | TTTTATGTTTGTTGGTTGTTGAGTTTATGTGATTATATTTCGGAGTCACCTAGTGCAG | 9050 fluorescence intensity (a.u.)
20 | AATATAAACCCTGATTTGTACCCATACCTCCATAATTCAACGGAGTCACCTAGTGCAG | 10400 fluorescence intensity (a.u.)
21 | TACGCGTTATTTGTTTTTCGCAGCGTTTCCTTTTTTTTTTCGGAGTCACCTAGTGCAG | 9540 fluorescence intensity (a.u.)
22 | GTTGGGATCTAGCTTGTTCTAGCGATTGTTTTTTTTTTATCGGAGTCACCTAGTGCAG | 8170 fluorescence intensity (a.u.)
23 | GATGATTCGGAGTTAGTAGTGGCCTATCCTATTAAACTTGCGGAGTCACCTAGTGCAG | 8160 fluorescence intensity (a.u.)
24 | GCCTCTCCTTTTTATCTGCTGTGGATTGGATAATTGGACACGGAGTCACCTAGTGCAG | 8250 fluorescence intensity (a.u.)
25 | GGTTATATCCGATTTTACGGTTAAGGGGTGTGATTTGACCCGGAGTCACCTAGTGCAG | 9360 fluorescence intensity (a.u.)
26 | CGACGCTGATCTCAAATATTTCGACCACCATTGCCCGTATCGGAGTCACCTAGTGCAG | 9900 fluorescence intensity (a.u.)
27 | TATATTTGTCAAGGTTATTGGAGATCCTTCCTTGGGTTCCCGGAGTCACCTAGTGCAG | 8050 fluorescence intensity (a.u.)

Taken from the listing for reference:
Row | Sequence | binding signal
9 | TTATCTCGCGATTTACATACAGCCTATGCAATTAGCTTTTCGGAGTCACCTAGTGCAG | 8050 fluorescence intensity (a.u.)
10 | CTTCCTTTTCTCTTCTTCTTCTTCTTCTTTTGCGTGGGGACGGAGTCACCTAGTGCAG | 9650 fluorescence intensity (a.u.)
11 | TCTTTAGTTCAGTTAATCCTCCTTTTAAAAGGATAGCTCTCGGAGTCACCTAGTGCAG | 8200 fluorescence intensity (a.u.)

(continued)

Row | Sequence | binding signal
28 | TATCATTTCTCTCGATGATTCCTTTTTCTCTTTTGTTCATCGGAGTCACCTAGTGCAG | 8580 fluorescence intensity (a.u.)
29 | CAGCTGGCACCACCCATTCCTCGCGTCGCATCGCACTTGTCGGAGTCACCTAGTGCAG | 13500 fluorescence intensity (a.u.)
30 | TTGGTTGATTAATACATAAGGTAGTCTTGGTTATATCCGACGGAGTCACCTAGTGCAG | 8320 fluorescence intensity (a.u.)
31 | TCTCTCGTTTTCCACACACACGTTTTTTAAACTGCTAAACCGGAGTCACCTAGTGCAG | 10200 fluorescence intensity (a.u.)
32 | CCTCCATGGATCGATCGATCTCGACGACGACCTTGCACTACGGAGTCACCTAGTGCAG | 8290 fluorescence intensity (a.u.)
33 | TTGGGTTGGCATGAAAGTGCCTTGTGATGATACTGATAGACGGAGTCACCTAGTGCAG | 9960 fluorescence intensity (a.u.)
34 | ATCTTTCAATCTATGTATTATTTCAATCTACGTATTAATACGGAGTCACCTAGTGCAG | 10500 fluorescence intensity (a.u.)
35 | CCCACATCGACCATCCTGCCTTGTACGTCATCCCCGCCCTCGGAGTCACCTAGTGCAG | 10900 fluorescence intensity (a.u.)
36 | CTGTGTGGCGGCGGCAGCGGTCCCGGTGGAGTGGGAGGGGCGGAGTCACCTAGTGCAG | 11200 fluorescence intensity (a.u.)
37 | TTAGTTGTTACCTTTGTCTCCTTCGTTGATCCATTGAAAGCGGAGTCACCTAGTGCAG | 10500 fluorescence intensity (a.u.)
38 | TCTTCTTCTCTTCTTCCTTGCATGCTCTAACAAGGAAGCACGGAGTCACCTAGTGCAG | 8080 fluorescence intensity (a.u.)
39 | GATGCGCGCGAACGGAGACGACGGGGTAGGGTGGGGAGGGCGGAGTCACCTAGTGCAG | 12300 fluorescence intensity (a.u.)
40 | CATTATCGTCCCATGTGTTGTCTGCATTGCGGCATGCGTTCGGAGTCACCTAGTGCAG | 9230 fluorescence intensity (a.u.)
41 | GAGGCTGTTGGAGTTGCTTGGAGAGTGGTTTGATAGAGGCCGGAGTCACCTAGTGCAG | 8100 fluorescence intensity (a.u.)
42 | AGATAGATAGTCCCTTTGTTTTTGCCTCTTGATCTGTTACCGGAGTCACCTAGTGCAG | 9350 fluorescence intensity (a.u.)
43 | CATTTCTTTGACTCTTCGTCAATATAATATTTACGTGTCCCGGAGTCACCTAGTGCAG | 9950 fluorescence intensity (a.u.)
44 | TTCGTTTGCTCTGCTCTTTCTTATGCAAGATGTGTTTAATCGGAGTCACCTAGTGCAG | 9840 fluorescence intensity (a.u.)
45 | ACACTTTTATGTCTACCCACTCCCCTAGCTTGCATCCCAACGGAGTCACCTAGTGCAG | 8280 fluorescence intensity (a.u.)
46 | ATGAGTGACTAGTATATGCATGTTGATCGATCCTCCGGCGCGGAGTCACCTAGTGCAG | 8100 fluorescence intensity (a.u.)
47 | GTGCGTTTGCTGACCTCGCGATCTCCGCTACCACCACCAGCGGAGTCACCTAGTGCAG | 8750 fluorescence intensity (a.u.)
48 | ACCGCGACCTCTCCCGCCTCGCGTCCACATTGTGTGACCTCGGAGTCACCTAGTGCAG | 9520 fluorescence intensity (a.u.)
49 | CGTTTTTGCGTATCTTCCTAATCTCCTCAATCACCTTATCCGGAGTCACCTAGTGCAG | 11400 fluorescence intensity (a.u.)
50 | TGCCGCCGCCCGCCGTGCTTAGGGGTATTTTCATTATTTTCGGAGTCACCTAGTGCAG | 9090 fluorescence intensity (a.u.)
51 | CTAGCTATAGCATCAGTGTGCGCCAATGTCCTATATTATGCGGAGTCACCTAGTGCAG | 8440 fluorescence intensity (a.u.)
52 | GCCATCCGAGCCCAACTCTACCCAGGCCCATCTCAGCCCACGGAGTCACCTAGTGCAG | 8200 fluorescence intensity (a.u.)
53 | TGCCACTACTTGATGCTCTTAGGTTCTGTCCATCTTCACCCGGAGTCACCTAGTGCAG | 8900 fluorescence intensity (a.u.)
54 | TATTAGCTTAGGTGTTGGTCTTCTCTCGTAGTCGGGTCTTCGGAGTCACCTAGTGCAG | 9900 fluorescence intensity (a.u.)
